Results: the supplement of paper PMC6078165
The reference is the same well before dosing, and untreated signal decays as well.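 Fibroblast labels denote human fibroblasts, mainly primary ones from uterus (C12385, HUF), lung (H6013), bone (Hs27A), adrenal (HADF) and skin (WS1), plus mammary HMF and breast cancer-associated Hs343T. Cancer cells are basal-like or mesenchymal-like triple-negative breast cancer lines. A hit is a response shift exceeding 3x replicate standard deviation. The tissue of the other fibroblasts is not given here.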

Test system: MDAMB436
Assay: relative JC-1 red fluorescence (viability) vs pre-drug, coculture with fibroblast (fraction); higher = more viable cancer cells
Method: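 JC-1 labelled TNBC cells cocultured 1:1 (1,500 cells each) with CellTrace Violet stained primary or stromal fibroblasts in 384-well plates in FluoroBrite medium, treated with one of 42 anticancer drugs at 0.1, 1, 10 or 100 uM. JC-1 red fluorescence (mitochondrial integrity in cancer cells only) was read by plate reader every 8 h for 72 h. Values are normalised to each well's pre-drug value. The stock of one drug was tenfold lower, so its dose labels may be too high.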

CC(=O)O[C@H]1C(=O)[C@@]2(C)[C@H]([C@H](OC(=O)c3ccccc3)[C@]3(O)C[C@H](OC(=O)[C@H](O)[C@@H](NC(=O)c4ccccc4)c4ccccc4)C(C)=C1C3(C)C)[C@]1(OC(C)=O)CO[C@@H]1C[C@@H]2O [Paclitaxel]
relative JC-1 red fluorescence
Settings	8 h	16 h	24 h	32 h	40 h	48 h	56 h	64 h	72 h
0.1 µM, coculture fibroblast: C12385	0.8273	0.6798	0.6503	0.5685	0.52	0.49	0.471	0.459	0.46
0.1 µM, coculture fibroblast: H6013	0.871	0.751	0.768	0.783	0.803	0.845	0.846	0.818	0.844
0.1 µM, coculture fibroblast: H6019	0.73326	0.633	0.615	0.554	0.532	0.528	0.515	0.516	0.509
0.1 µM, coculture fibroblast: H6076	0.713	0.6313	0.628	0.604	0.613	0.6	0.641	0.655	0.662
0.1 µM, coculture fibroblast: H6231	0.763	0.679	0.65125	0.5779	0.5599	0.5372	0.5158	0.497	0.4834
0.1 µM, coculture fibroblast: HADF	0.8277	0.7558	0.689	0.6671	0.643	0.657	0.615	0.6068	0.5745
0.1 µM, coculture fibroblast: HCFa	0.8	0.663	0.645	0.61	0.588	0.602	0.547	0.551	0.497
0.1 µM, coculture fibroblast: HCPF	0.7655	0.6834	0.6488	0.6011	0.59	0.567	0.55	0.531	0.521
0.1 µM, coculture fibroblast: HHSteC	0.878	0.8	0.77	0.73	0.685	0.677	0.614	0.592	0.5512
0.1 µM, coculture fibroblast: HMF	0.765	0.658	0.6374	0.607	0.597	0.57	0.576	0.547	0.551
0.1 µM, coculture fibroblast: HPFa	0.909	0.876	0.814	0.76	0.7398	0.74609	0.6811	0.6636	0.621
0.1 µM, coculture fibroblast: HUF	0.838	0.723	0.706	0.641	0.585	0.56	0.534	0.528	0.518
0.1 µM, coculture fibroblast: Hs5	0.809	0.743	0.7264	0.6812	0.673	0.633	0.659	0.6251	0.633
0.1 µM, coculture fibroblast: Hs27A	0.808	0.756	0.732	0.728	0.74	0.803	0.757	0.763	0.707
0.1 µM, coculture fibroblast: Hs343T	0.754	0.664	0.634	0.59	0.58	0.547	0.541	0.526	0.524
0.1 µM, coculture fibroblast: WS1	0.797	0.6545	0.644	0.575	0.537	0.513	0.497	0.48	0.486
1 µM, coculture fibroblast: C12385	0.8158	0.6885	0.6689	0.589	0.54	0.52	0.504	0.498	0.507
1 µM, coculture fibroblast: H6013	0.8528	0.736	0.746	0.755	0.754	0.796	0.784	0.8	0.789
1 µM, coculture fibroblast: H6019	0.7837	0.682	0.661	0.591	0.558	0.55	0.5309	0.516	0.507
1 µM, coculture fibroblast: H6076	0.747	0.694	0.682	0.647	0.633	0.623	0.65984	0.667	0.6856
1 µM, coculture fibroblast: H6231	0.818	0.7334	0.742	0.673	0.647	0.626	0.622	0.609	0.602
1 µM, coculture fibroblast: HADF	0.834	0.758	0.737	0.712	0.702	0.72	0.678	0.678	0.647
1 µM, coculture fibroblast: HCFa	0.845	0.744	0.724	0.688	0.663	0.678	0.616	0.605	0.555
1 µM, coculture fibroblast: HCPF	0.839	0.728	0.719	0.646	0.607	0.5639	0.536	0.518	0.491
1 µM, coculture fibroblast: HHSteC	0.853	0.774	0.755	0.721	0.71	0.724	0.674	0.661	0.619
1 µM, coculture fibroblast: HMF	0.801	0.683	0.674	0.627	0.594	0.56	0.553	0.54	0.527
1 µM, coculture fibroblast: HPFa	0.8881	0.815	0.783	0.745	0.729	0.74	0.669	0.652	0.609
1 µM, coculture fibroblast: HUF	0.85302	0.7497	0.724	0.642	0.589	0.557	0.533	0.51	0.504
1 µM, coculture fibroblast: Hs5	0.771	0.73	0.72	0.659	0.642	0.609	0.623	0.607	0.614
1 µM, coculture fibroblast: Hs27A	0.858	0.804	0.781	0.757	0.7513	0.82	0.7518	0.759	0.703
1 µM, coculture fibroblast: Hs343T	0.785	0.675	0.663	0.619	0.582	0.548	0.543	0.529	0.53
1 µM, coculture fibroblast: WS1	0.7867	0.6903	0.7094	0.6396	0.6139	0.5946	0.5844	0.577	0.572
10 µM, coculture fibroblast: C12385	0.859	0.774	0.7523	0.6875	0.6342	0.6102	0.5827	0.5661	0.562
10 µM, coculture fibroblast: H6013	0.871	0.905	0.868	0.863	0.843	0.8495	0.833	0.81	0.78
10 µM, coculture fibroblast: H6019	0.8048	0.736	0.728	0.674	0.652	0.643	0.624	0.62	0.612
10 µM, coculture fibroblast: H6076	0.7692	0.636	0.587	0.557	0.541	0.52435	0.538	0.541	0.55
10 µM, coculture fibroblast: H6231	0.804	0.717	0.63	0.57	0.526	0.483	0.46	0.4306	0.412
10 µM, coculture fibroblast: HADF	0.9069	0.846	0.811	0.78	0.749	0.751	0.71	0.7	0.659
10 µM, coculture fibroblast: HCFa	0.814	0.738	0.709	0.681	0.652	0.676	0.623	0.626	0.589
10 µM, coculture fibroblast: HCPF	0.8038	0.695	0.594	0.546	0.506	0.466	0.439	0.415	0.399
10 µM, coculture fibroblast: HHSteC	0.904	0.851	0.827	0.794	0.776	0.786	0.729	0.723	0.683
10 µM, coculture fibroblast: HMF	0.7926	0.683	0.619	0.582	0.566	0.529	0.513	0.497	0.492
10 µM, coculture fibroblast: HPFa	0.913	0.862	0.801	0.768	0.7449	0.7462	0.686	0.678	0.6347
10 µM, coculture fibroblast: HUF	0.883	0.801	0.78	0.699	0.652	0.626	0.601	0.589	0.587
10 µM, coculture fibroblast: Hs5	0.847	0.768	0.703	0.648	0.616	0.563	0.555	0.521	0.513
10 µM, coculture fibroblast: Hs27A	0.865	0.82	0.813	0.81	0.799	0.84	0.788	0.789	0.728
10 µM, coculture fibroblast: Hs343T	0.85	0.744	0.662	0.618	0.578	0.554	0.521	0.5004	0.49
10 µM, coculture fibroblast: WS1	0.852	0.758	0.7363	0.658	0.612	0.588	0.565	0.528	0.517
